According to article PMC13071878, “Yeast Display Technology Enables Rapid Discovery of Low-Nanomolar Macrocyclic Peptide Inhibitors of Human Angiotensin-Converting Enzyme 2” (Journal of Medicinal Chemistry, 2026):
These are yes or no findings as the source states them, for the method shown. Some results given as binding are weak or reduced against the parent protein; the word gives no strength.

Chains of the proteins cited; added tags and fusions are not shown. Residues count along the entry.
UniProt Q9BYF1, residues 19-615: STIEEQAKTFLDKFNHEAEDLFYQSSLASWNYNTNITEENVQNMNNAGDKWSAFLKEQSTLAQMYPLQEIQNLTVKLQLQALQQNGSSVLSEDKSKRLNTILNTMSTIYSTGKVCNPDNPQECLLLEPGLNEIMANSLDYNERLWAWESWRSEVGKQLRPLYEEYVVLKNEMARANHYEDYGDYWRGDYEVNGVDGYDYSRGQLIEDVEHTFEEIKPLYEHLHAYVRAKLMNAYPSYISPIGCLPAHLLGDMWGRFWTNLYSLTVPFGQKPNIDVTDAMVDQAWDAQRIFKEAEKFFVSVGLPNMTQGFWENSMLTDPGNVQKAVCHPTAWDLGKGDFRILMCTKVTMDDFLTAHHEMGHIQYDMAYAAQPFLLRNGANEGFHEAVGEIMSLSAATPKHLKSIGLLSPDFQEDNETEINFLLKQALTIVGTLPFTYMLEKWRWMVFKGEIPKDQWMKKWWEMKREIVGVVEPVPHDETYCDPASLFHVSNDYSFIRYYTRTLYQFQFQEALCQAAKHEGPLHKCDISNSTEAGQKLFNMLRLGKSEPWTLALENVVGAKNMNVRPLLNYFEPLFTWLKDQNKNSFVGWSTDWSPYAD

Key:
Assay in all cases: flow cytometry on cells; yeast surface display titration: yeast cells displaying the MP incubated with soluble biotinylated hACE2 (100 pM to 3 μM), at least 1 h, room temperature; neutravidin-DyLight 650 detection, binding MFI normalised to display (anti-HA) MFI; one-site fit; apparent KD; n = 3; only the binder purified
[1] = molecular target: T1, GR1.9 (N8A), yeast-displayed alanine mutant of GR1.4
T1 sequence (peptide): ACEPLGYALFLCSG

[2] = molecular target: T2, GR1.7 (G6A), yeast-displayed alanine mutant of GR1.4
T2 sequence (peptide): ACEPLAYNLFLCSG

[3] = molecular target: T3, GR1.8 (Y7A), yeast-displayed alanine mutant of GR1.4
T3 sequence (peptide): ACEPLGANLFLCSG

[4] = molecular target: T4, GR1.6 (L5A), yeast-displayed alanine mutant of GR1.4
T4 sequence (peptide): ACEPAGYNLFLCSG

binding [1]: binds
binding [2]: no binding (tested: up to 3 μM hACE2)
binding [3]: no binding (tested: up to 3 μM hACE2)
binding [4]: no binding (tested: up to 3 μM hACE2)
Substance: human angiotensin-converting enzyme 2, extracellular catalytic domain, produced in mammalian cells (glycosylated), biotinylated (from UniProt Q9BYF1 19-615)
